PubChem BioAssay AID1259424, University of Nebraska Medical Center | 2018

Assay: 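Find knockdowns that reproduce the expression shifts seen after KSR1 loss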 (primary screen)
System: human HCT116 colon cancer cells
Reagents: siRNA pool against human genes, 50 nM
Read-out: 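Log2 levels of six mRNAs (branched-DNA multiplex), adjusted by two reference genes and the non-targeting median, then scored against the average KSR1 knockdown pattern as Pearson r and euclidean distance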
Direction: mean correlation with KSR1 profile and KSR1 correlation: higher = expression change more like KSR1 knockdown; mean distance from KSR1 profile: higher = expression change less like KSR1 knockdown
The whole screen tested about 14,000 reagents; shown is an unselected part. 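Higher correlation or smaller distance means closer resemblance to KSR1 loss; control wells, including KSR1 knockdowns, recur on many plates.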 Not all columns of the deposit are shown. Not given: the time to read-out.

target gene	mean correlation with KSR1 profile	mean distance from KSR1 profile	KSR1 correlation, replicate 1	KSR1 correlation, replicate 2
GET4 (guided entry of tail-anchored proteins factor 4)	0.285	1.54	0.0154	0.582
HSD17B14 (hydroxysteroid 17-beta dehydrogenase 14)	-0.431	3.94	-0.397	-0.347
HELZ (helicase with zinc finger)	-0.462	3.57	-0.222	-0.66
LPO (lactoperoxidase)	0.871	1.48	0.822	0.84
EVA1A (eva-1 homolog A, regulator of programmed cell death)	0.885	2.24	0.767	0.934
ZNF646 (zinc finger protein 646)	-0.019	2.12	-0.0638	0.137
CNOT6 (CCR4-NOT transcription complex subunit 6)	0.325	1.65	0.0261	0.0709
ONECUT1 (one cut homeobox 1)	-0.366	2.79	-0.0956	-0.104
DTX4 (deltex E3 ubiquitin ligase 4)	-0.608	3.26	-0.639	-0.659
PIP4K2A (phosphatidylinositol-5-phosphate 4-kinase type 2 alpha)	0.709	2.54	0.684	0.621
AREG (amphiregulin)	-0.322	2.04	0.0971	-0.286
SPOCK3	-0.792	2.63	-0.744	-0.59
SMR3B (submaxillary gland androgen regulated protein 3B)	-0.38	4.04	0.00541	-0.49
UGT2B11 (UDP glucuronosyltransferase family 2 member B11)	-0.13	2.32	0.0516	-0.173
RBM8A (RNA binding motif protein 8A)	0.318	4.6	0.386	0.475
TOM1 (target of myb1 membrane trafficking protein)	-0.697	3	-0.795	-0.719
ARHGEF38 (Rho guanine nucleotide exchange factor 38)	-0.0956	2.57	-0.0693	-0.428
SNX29 (sorting nexin 29)	0.607	1.31	0.587	0.466
PKD2 (polycystin 2, transient receptor potential cation channel)	0.734	1.19	0.67	0.606
CFI (complement factor I)	0.188	1.22	0.265	0.0418
HMG20B (high mobility group 20B)	0.472	1.59	0.391	-0.0587
RASA4 (RAS p21 protein activator 4)	0.549	2.06	0.585	0.527
CRYGB (crystallin gamma B)	0.607	1.02	0.558	0.497
RIC1 (RIC1 partner of RAB6A GEF complex)	-0.557	1.69	-0.511	-0.332
POLR1HASP (POLR1H antisense, pseudogene)	0.263	2.1	0.0402	0.148
AARS2 (alanyl-tRNA synthetase 2, mitochondrial)	0.0462	3.52	0.115	0.325
GALNT3 (polypeptide N-acetylgalactosaminyltransferase 3)	0.7	0.832	0.66	0.448
CELA1 (chymotrypsin like elastase 1)	-0.0559	3.12	-0.206	-0.0742
PDE4D (phosphodiesterase 4D)	0.413	1.94	0.0472	0.653
SPATA22 (spermatogenesis associated 22)	-0.121	2.03	-0.325	0.482
EDN3 (endothelin 3)	0.128	1.57	0.26	0.0316
PRDM9 (PR/SET domain 9)	0.468	2.05	0.473	0.625
CDHR2 (cadherin related family member 2)	-0.314	3.41	-0.442	-0.31
LIME1 (Lck interacting transmembrane adaptor 1)	-0.309	1.79	-0.00802	-0.611
ALPK1 (alpha kinase 1)	-0.353	2.11	-0.2	-0.291
S100A7 (S100 calcium binding protein A7)	-0.57	1.92	-0.396	-0.318
NDST4 (N-deacetylase and N-sulfotransferase 4)	-0.0614	1.52	-0.104	-0.118
UGGT2 (UDP-glucose glycoprotein glucosyltransferase 2)	0.073	2.34	-0.0733	-0.00772
HIRA (histone cell cycle regulator)	-0.234	2.85	-0.0398	-0.27
DVL1 (dishevelled segment polarity protein 1)	0.679	0.792	0.661	0.491
GRIK3 (glutamate ionotropic receptor kainate type subunit 3)	-0.702	1.69	-0.732	-0.689
GJB6 (gap junction protein beta 6)	0.202	2.01	0.193	0.161
ZNF436 (zinc finger protein 436)	0.387	1.6	0.326	0.231
RPTOR (regulatory associated protein of MTOR complex 1)	-0.54	1.9	-0.539	-0.537
OSTC (oligosaccharyltransferase complex non-catalytic subunit)	-0.096	2.55	-0.112	0.046
DBNDD2 (dysbindin domain containing 2)	-0.71	3.07	-0.76	-0.59
NCSTN (nicastrin)	-0.311	3.28	-0.108	-0.147
PSG11 (pregnancy specific beta-1-glycoprotein 11)	0.696	1.44	0.835	0.633
ANXA2P3 (annexin A2 pseudogene 3)	-0.809	2.19	-0.783	-0.728
EVC (EvC ciliary complex subunit 1)	-0.809	1.77	-0.547	-0.915

3 entries from above, sorted by “KSR1 correlation, replicate 1”, low to high:
target gene	mean correlation with KSR1 profile	mean distance from KSR1 profile	KSR1 correlation, replicate 1	KSR1 correlation, replicate 2
DBNDD2 (dysbindin domain containing 2)	-0.71	3.07	-0.76	-0.59
RPTOR (regulatory associated protein of MTOR complex 1)	-0.54	1.9	-0.539	-0.537
OSTC (oligosaccharyltransferase complex non-catalytic subunit)	-0.096	2.55	-0.112	0.046
